For the data set, the system named is scopolamine induced memory deficit. As to the kind of experiment: Object recognition test (scopolamine induced memory deficit). The class given is in vivo, rat. The following applies: 1 mg/kg p.o. + Scop. 0.1 mg/kg, rats. As to the method:
They were kept under a 12/12-hour light/dark cycle (lights on from 19.00 to 7.00 h) and had free access to food and water. […] A radio, which was playing softly, provided background noise in the room. […] The apparatus consisted of a circular arena, 83 cm in diameter. […] The light intensity was equal in the different parts of the apparatus, as fluorescent red tubes provided a constant illumination of about 20 lux on the floor of the apparatus. […] Each object was available in triplicate. Four different sets of objects were used. A testing session consisted of two trials. […] During the first trial (T1) the apparatus contained two identical objects (samples). Rats were placed in the apparatus facing the wall at the middle of the front (transparent) segment. After the first exploration period the rat was put back in its home cage. […] Exploration was defined as follows: directing the nose to the object at a distance of no more than 2 cm and/or touching the object with the nose. Sitting on the object was not considered as exploratory behavior.

With `COc1cc2ncnc(N3CC[C@@H](Oc4cnc5ccccc5n4)C3)c2cc1OC` [PQ10, 6,7-dimethoxy-4-[3(R)-(quinoxalin-2-yloxy)pyrrolidin-1-yl]quinazoline], the “exploration time first trial (e1), mean” value was found to be 22.32 s and the “exploration time second trial (e2), mean” value was found to be 22.63 s.

The record behind these values is US8859543B2, “Imidazo[1,2-a]pyrazine derivatives and their use for the prevention or treatment of neurological, psychiatric and metabolic disorders and diseases” (Janssen Pharmaceutica NV, priority 2010, dated 2014).
